Test results as given in US20180002415A1.
No constants are given. Whether binding was seen depends on the method and setting. Some binding calls cover weakened binding; strength is not graded here.

Chains of the proteins cited; added tags and fusions are not shown. Lines headed by an entry give the natural chain unless they say otherwise; changes in a name come on top.
UniProt P01031: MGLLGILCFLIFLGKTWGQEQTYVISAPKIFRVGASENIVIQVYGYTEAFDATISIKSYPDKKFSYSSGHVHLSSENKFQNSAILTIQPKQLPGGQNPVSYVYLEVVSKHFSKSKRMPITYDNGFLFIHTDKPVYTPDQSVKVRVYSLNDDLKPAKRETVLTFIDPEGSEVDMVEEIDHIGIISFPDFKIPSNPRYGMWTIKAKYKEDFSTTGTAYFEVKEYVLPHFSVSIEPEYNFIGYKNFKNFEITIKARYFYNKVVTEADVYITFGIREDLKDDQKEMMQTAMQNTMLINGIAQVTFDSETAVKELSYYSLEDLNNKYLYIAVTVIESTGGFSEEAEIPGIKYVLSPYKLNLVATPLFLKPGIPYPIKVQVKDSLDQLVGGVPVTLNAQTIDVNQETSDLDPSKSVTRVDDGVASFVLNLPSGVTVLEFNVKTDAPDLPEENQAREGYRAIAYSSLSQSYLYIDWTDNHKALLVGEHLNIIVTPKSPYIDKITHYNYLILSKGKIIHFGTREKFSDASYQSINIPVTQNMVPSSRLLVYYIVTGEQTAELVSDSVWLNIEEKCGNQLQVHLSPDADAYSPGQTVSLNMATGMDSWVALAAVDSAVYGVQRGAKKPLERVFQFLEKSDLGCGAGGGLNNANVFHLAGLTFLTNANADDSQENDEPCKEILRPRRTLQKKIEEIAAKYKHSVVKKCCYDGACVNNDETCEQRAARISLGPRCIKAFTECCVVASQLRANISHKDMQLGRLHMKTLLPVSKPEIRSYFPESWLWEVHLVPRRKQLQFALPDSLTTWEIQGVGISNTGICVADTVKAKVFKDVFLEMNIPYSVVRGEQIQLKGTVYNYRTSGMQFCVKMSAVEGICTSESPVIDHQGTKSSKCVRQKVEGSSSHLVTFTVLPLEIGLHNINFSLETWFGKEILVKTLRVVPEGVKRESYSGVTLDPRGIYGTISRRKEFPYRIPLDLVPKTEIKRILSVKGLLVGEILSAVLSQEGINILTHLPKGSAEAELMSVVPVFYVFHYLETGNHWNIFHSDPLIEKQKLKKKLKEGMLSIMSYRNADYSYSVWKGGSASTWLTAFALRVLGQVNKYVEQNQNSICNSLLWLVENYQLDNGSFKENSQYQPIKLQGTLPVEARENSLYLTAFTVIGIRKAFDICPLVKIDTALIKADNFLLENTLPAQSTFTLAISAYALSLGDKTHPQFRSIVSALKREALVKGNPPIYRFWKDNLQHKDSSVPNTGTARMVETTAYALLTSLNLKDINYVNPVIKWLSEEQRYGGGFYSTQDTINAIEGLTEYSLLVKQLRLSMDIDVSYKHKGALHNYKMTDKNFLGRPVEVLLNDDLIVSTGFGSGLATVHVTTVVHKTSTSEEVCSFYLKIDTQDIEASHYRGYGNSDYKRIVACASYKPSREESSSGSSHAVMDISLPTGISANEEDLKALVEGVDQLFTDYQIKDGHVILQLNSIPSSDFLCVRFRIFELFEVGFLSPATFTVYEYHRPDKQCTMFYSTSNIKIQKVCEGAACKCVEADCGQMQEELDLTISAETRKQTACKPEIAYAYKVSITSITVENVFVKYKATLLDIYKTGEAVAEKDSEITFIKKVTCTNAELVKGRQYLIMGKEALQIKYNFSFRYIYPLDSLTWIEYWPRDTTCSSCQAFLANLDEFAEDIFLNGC

Target: recombinant human C5 (human) (UniProt P01031)
Assay: SPR (BIACORE T200, 37 C): antibody captured by ProA/G, recombinant human C5 injected, running buffer ACES pH7.4 or pH5.8; C5 concentration of the curves not printed on the sheet

B1: CFA0341 (antibody, V domains shown)
VH: QSVEESGGRLVTPGTPLTLTCTVSGIDLSSYTMGWVRQAPGKGLECIGYIHSFGSTYYASWAKGRFTISKTSTTVDLEITSPTTEDTATYFCARDVGGSSGWDLWGQGTLVTVSS
VL: DVVMTQTPSSVSAAVGGTVTIKCQASENIYSNLAWYQQKPGQPPKRLIYDASDLASGVPSRFSGSGYGTQFTLTISGVQCEDAATYYCQANYDSTSSSFGNVFGGGTEVVVK
binding: binds
